Laboratory results taken from article PMC10163288.
This is one part of the list.

B1: il2ra_site2_2erj_normal_mot_HHH_b1_04462_000000080_0001_40_56_H_._HHH_b1_02157_af2_0001_0000200030_0000001_0 (protein)
chain: SSSSDREEEIVREIVEELGLSEEVQKLLEEHARIALERGASEELVEAFLRRSAEALAEALSSSSS
B2: il2ra_site2_2erj_normal_mot_HHH_b2_02252_af2_000000112_0001_23_39_H_._HHH_b2_02373_af2_0001_0000200006_0000001_0 (protein)
chain: SSSSSKEEAEELLEEAEKALEEGDEEKAERLLRRAAEIAFEEGDEELFSEIAEEAHKVARASSSS
B3: il2ra_site1_1z92_normal_mot_HHH_b1_03785_000000215_0001_1_20_H_._bef423f67012f639c2a89b71bdd22866_0001_0001_0000300012_0000001_0 (protein)
chain: SEEREEEAREILEEVLPPEAVEYYILLLKSASRSNNPRLERVVRRNIEAALGDPELARKVVELVK
B4: il2ra_site2_2erj_normal_mot_HHH_b2_04303_af2_000000294_0001_21_38_H_._HHH_b2_03312_0001_0000400028_0000001_0 (protein)
chain: SSSSSEEEKRLEELLERIEELIEEGDPEKAEELLSEAFELAYRNNDEEVAAILIELAHLVFSSSS
B5: il2ra_site2_3nfp_normal_mot_HHH_b2_05281_000000198_0001_39_56_H_._HHH_b1_04436_af2_0001_0000400043_0000001_0 (protein)
chain: SSSSDEIEELEKEAKELLEKGNPEEAREVLSKAAELAFELRDSEAFFKIAELAFKVLQLLESSSS
B6: il2ra_site1_3nfp_normal_mot_HHH_b1_01231_af2_000000170_0001_1_16_H_._HHH_b2_07449_af2_0001_0000200019_0000001_0_af2pred_0001_af2pred (protein)
chain: SSSSEERRRALELLLRALELALNGNPEEAEEVLREAEEIAEKGGNESLLKLIEAAKRATERSSSS
B7: il2ra_site1_3nfp_normal_mot_HHH_b1_00630_af2_000000193_0001_42_55_H_._be73ba4ac32714b816344d1b21815a46_0001_0001_0000200007_0000001_0_1_af2pred_0001_af2pred_1 (protein)
chain: DTAEELIAHAVEKGDKRAIKKIVELAERYLGDPEEAERLVIELLRRALNIPPEEAKELVEELLER
B8: il2ra_site2_3nfp_sap_23_mot_HHH_b1_00050_000000292_0001_22_38_H_._3932a6e8e66b0b352c148f6700bd03ae_0001_af2_0001_0001100015_0000001_0_0001_af2pred_0001_af2pred_ … (protein)
chain: SSSSDVEERIEELLELVEEAIKKGDPFRAFALLLEALELAERYNDEEAERKVEKLAKELASSSSS
B9: il2ra_site1_3nfp_sap_18_mot_HHH_b1_05070_af2_000000282_0001_43_57_H_._HHH_b1_07015_af2_0001_0001400042_0000001_0_0001 (protein)
chain: SSDEWFEELVRRVTKLAEEKNDEEVRELAEKALELWKEAAENQDMEAADEAIRIVARLQNRVKSS
B10: il2ra_site1_1z92_normal_mot_HHH_b2_04375_000000267_0001_42_56_H_._HHH_b2_08134_af2_0001_0000200026_0000001_0_af2pred_0001_af2pred (protein)
chain: SSSSDEEKEELEEFVEQLVKELGLDEEAEKRERESLERALEAGIDPEAIKKALERNARRTGSSSS
B11: il2ra_site1_1z92_sap_10_mot_22370d59370c406a0c205a431f537cfa_0001_000000027_0001_1_14_H_._HHH_b2_03329_0001_0000400034_0000001_0_0001 (protein)
chain: DDEEAEELLREILKERGSEEVLEKDLRRAERLFGDPRHALLALIMVAISFFGDPRLEEARELVKK
B12: il2ra_site1_3nfp_normal_mot_0eddeacbb14b769e73e254714f31e2f9_0001_af2_000000052_0001_37_51_H_._HHH_b1_00975_af2_0002_0000100004_0000001_0 (protein)
chain: SSSSSDEEELRERVEELLEEAKHVSEEEASRLIEEAYRLVQENGNQELADLIYRVMREMISSSSS
B13: il2ra_site2_3nfp_sap_11_mot_HHH_b2_02437_000000052_0001_42_56_H_._HHH_b1_03056_0001_0000400016_0000001_1_0001 (protein)
chain: SSSSDFEKLERMVEVAEHVAEAEGDEEVLERLRELLERAQEEGDSRLLLEAFALIRELILNSSSS
B14: il2ra_site2_3nfp_normal_mot_HHH_b1_08498_000000146_0001_21_37_H_._HHH_b2_03533_af2_0001_0000600018_0000001_0_af2pred_0001_af2pred (protein)
chain: SSSSSSSEEAIEAARWLAEILGDEEVLEQIEELLERYRKEGDERYEEEALRLLQELYESSSSSSS
B15: il2ra_site2_2erj_sap_30_mot_HHH_b2_01204_af2_000000051_0001_19_34_H_._HHH_b2_02783_0001_0000800038_0000001_1_0001_af2pred_0001_1_af2pred_swapped (protein)
chain: SSSSTEEEIEELIERIEELIKRGDREEAEELLLEALQLALKIDNEELFKRLEELREEVHGSSSSS
B16: il2ra_site2_2erj_sap_13_mot_a3b61943b7af24100a309c62926c5c00_0001_af2_000000082_0001_17_32_H_._HHH_b2_00092_0001_0000100002_0000001_0_0001 (protein)
chain: SSSSDEAEERIERLLEEAEELLERGDPAQAYEVLAEAARLVMELGDEELARLINRLMQSLMSSSS
B17: il2ra_site1_1z92_normal_mot_684917106388d69075f371d1b5c11ecb_0001_000000049_0001_53_65_H_._HHH_b1_04752_af2_0001_0000300033_0000001_0_af2pred_0001_af2pred_1 (protein)
chain: SSSSSDEEELRRFVEELVEEFGLSESAERWLRELVEEALKQGVDEHAIERDLENAARALSSSSSS
B18: il2ra_site1_3nfp_sap_11_mot_HHH_b2_00392_000000030_0001_1_16_H_._HEEHE_2134_0001_0000300048_0000001_0_0001 (protein)
chain: SHEEFVERAQKLVPPELQELLERAVKLAHERQDPELARLLIKAVALIQQGDPEKAEEVLEELERR

target: il2ra, P01589; assay: yeast display titration

Apparent Kd, inactive:
B1 no binding seen
B2 no binding seen
B3 no binding seen
B4 no binding seen
B5 no binding seen
B6 no binding seen
B7 no binding seen
B8 no binding seen
B9 no binding seen
B10 no binding seen
B11 no binding seen
B12 no binding seen
B13 no binding seen
B14 no binding seen
B15 no binding seen
B16 no binding seen
B17 no binding seen
B18 no binding seen

Quoted at random: 2 records from the list.
Apparent Kd, inactive:
B10 no binding seen
B5 no binding seen
